Publication PMC5029668
These are yes or no findings as the source states them, for the method shown. Binding seen in cells or lysates may run through a third protein. Some results given as binding are weak or reduced against the parent protein; the word gives no strength.

Sequences of proteins named here, by UniProt entry; tags and fusion partners are left off.
UniProt O15169: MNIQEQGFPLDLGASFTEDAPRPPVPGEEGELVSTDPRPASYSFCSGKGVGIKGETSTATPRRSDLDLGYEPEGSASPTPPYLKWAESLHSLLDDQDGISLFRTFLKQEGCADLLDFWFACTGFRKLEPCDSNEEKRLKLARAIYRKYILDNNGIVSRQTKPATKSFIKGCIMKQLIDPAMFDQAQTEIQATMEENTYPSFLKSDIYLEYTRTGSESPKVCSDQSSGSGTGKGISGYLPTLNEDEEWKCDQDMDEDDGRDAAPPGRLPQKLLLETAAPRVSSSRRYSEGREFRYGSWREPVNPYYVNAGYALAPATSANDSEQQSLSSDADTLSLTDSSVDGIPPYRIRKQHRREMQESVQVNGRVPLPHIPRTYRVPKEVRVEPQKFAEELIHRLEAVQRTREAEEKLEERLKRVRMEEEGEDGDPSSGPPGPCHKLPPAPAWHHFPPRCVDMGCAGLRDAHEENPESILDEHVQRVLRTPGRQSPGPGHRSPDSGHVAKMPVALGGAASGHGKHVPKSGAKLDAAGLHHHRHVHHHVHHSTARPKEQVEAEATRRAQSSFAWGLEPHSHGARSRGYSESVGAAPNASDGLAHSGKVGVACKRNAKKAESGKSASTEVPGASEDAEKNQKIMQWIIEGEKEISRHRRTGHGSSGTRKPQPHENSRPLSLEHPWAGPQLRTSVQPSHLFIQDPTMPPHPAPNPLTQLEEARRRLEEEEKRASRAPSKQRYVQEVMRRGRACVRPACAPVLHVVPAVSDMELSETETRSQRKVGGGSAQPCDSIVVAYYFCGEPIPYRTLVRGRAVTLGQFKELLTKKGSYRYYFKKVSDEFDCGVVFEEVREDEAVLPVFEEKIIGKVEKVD

What was measured:
[1] = target: endogenous Axin (human (endogenous in HEK293T)) (UniProt O15169); assay: co-IP; endogenous proteins; IP with C2b antibody against Axin, blot with anti-Rnf25
[2] = target: endogenous Axin (human (endogenous in HEK293T)) (UniProt O15169); assay: co-IP; two-step co-IP from HEK293T transfected with HA-Nkd1: first IP with C2b (Axin) or control IgG, eluate precipitated again with anti-HA or control IgG; repeated under knock-down of Dvl2

B1: endogenous Rnf25 (protein, UniProt Q96BH1 1-459)
chain: MAASASAAAGEEDWVLPSEVEVLESIYLDELQVIKGNGRTSPWEIYITLHPATAEDQDSQYVCFTLVLQVPAEYPHEVPQISIRNPRGLSDEQIHTILQVLGHVAKAGLGTAMLYELIEKGKEILTDNNIPHGQCVICLYGFQEKEAFTKTPCYHYFHCHCLARYIQHMEQELKAQGQEQEQERQHATTKQKAVGVQCPVCREPLVYDLASLKAAPEPQQPMELYQPSAESLRQQEERKRLYQRQQERGGIIDLEAERNRYFISLQQPPAPAEPESAVDVSKGSQPPSTLAAELSTSPAVQSTLPPPLPVATQHICEKIPGTRSNQQRLGETQKAMLDPPKPSRGPWRQPERRHPKGGECHAPKGTRDTQELPPPEGPLKEPMDLKPEPHSQGVEGPPQEKGPGSWQGPPPRRTRDCVRWERSKGRTPGSSYPRLPRGQGAYRPGTRRESLGLESKDGS
Question: Which binding [1] does the source give for B1 here?
Answer: Its binding is “binds”.

Question: And the binding [2]?
Answer: Its binding is “binds”.
